Reference: PubChem BioAssay AID1259254 (NCATS, 2017)

- Test: 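Gene knock-downs that lead to re-replication, shown by excess G2 DNA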 (primary screen)
- Cells: human HCT116 colorectal cancer cells
- Reagent: single siRNA against human genes
- Timing: 3 days
- Read-out: 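Nuclei stained with Hoechst and imaged; cell-cycle phase assigned by DNA content; G2 share scaled per plate, non-targeting siRNA 0%, GMNN siRNA 100%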
- Reading the numbers: G2 robust z-score and G2 cells, % of GMNN control: higher = more G2 cells, more excess DNA replication; raw share of cells in G2: higher = larger share of cells with G2 DNA content
- Active means: 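Active siRNAs have a G2 robust z of 5 or more median absolute deviations over the median, which in these data means about 38% or higher of GMNN control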
This is an unselected part of about 59,000 deposited reagents. About 1,550 of all reagents (2.6%) were called active. 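G2 share is only a proxy for re-replication; each gene was hit by three separate siRNAs, and active genes were retested.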 Raw values vary from plate to plate and are shown uncorrected. Reagents against one gene are numbered here. Reagent sequences are not shown. Not stated in the record: the amount of reagent.

no.	gene	reagent no.	G2 robust z-score	G2 cells, % of GMNN control	raw share of cells in G2 (%)	activity call
1	TTI2	1	1.04	10.3	8.7	inactive
2	TTI2	2	-0.518	-0.677	4.01	inactive
3	TTI2	3	-0.951	-3.72	1.36	inactive
4	GBE1	1	3.88	30.3	16.2	inactive
5	GBE1	2	0.281	4.94	5.42	inactive
6	GBE1	3	0.189	4.3	6.9	inactive
7	SMARCD2	1	6.22	46.7	19.4	active
8	SMARCD2	2	1.5	13.5	10.2	inactive
9	SMARCD2	3	3.36	26.6	13.7	inactive
10	VPS4A	1	-0.374	0.334	6.31	inactive
11	VPS4A	2	-0.975	-3.89	2.72	inactive
12	VPS4A	3	-0.554	-0.927	3.88	inactive
13	ADGRF5	1	-0.595	-1.22	5.41	inactive
14	ADGRF5	2	-0.997	-4.05	3.1	inactive
15	ADGRF5	3	0.626	7.37	5.53	inactive
16	FHL3	1	0.922	9.46	6.54	inactive
17	FHL3	2	0.298	5.06	5.47	inactive
18	FHL3	3	-0.286	0.958	5.3	inactive
19	NDP	1	0.568	6.97	7.94	inactive
20	NDP	2	-0.45	-0.196	4.14	inactive
21	NDP	3	0.128	3.87	4.75	inactive
22	LGI2	1	0.372	5.59	6.44	inactive
23	LGI2	2	-0.988	-3.98	2.67	inactive
24	LGI2	3	-0.89	-3.29	4.99	inactive
25	LOC441722	1	0.939	9.57	6.37	inactive
26	LOC441722	2	0.877	9.14	7.15	inactive
27	LOC441722	3	-1.04	-4.32	1.78	inactive

5 entries from above in another layout.
| gene | reagent no. | G2 robust z-score | G2 cells, % of GMNN control | raw share of cells in G2 (%) | activity call |
| --- | --- | --- | --- | --- | --- |
| ADGRF5 | 2 | -0.997 | -4.05 | 3.1 | inactive |
| ADGRF5 | 3 | 0.626 | 7.37 | 5.53 | inactive |
| FHL3 | 1 | 0.922 | 9.46 | 6.54 | inactive |
| FHL3 | 2 | 0.298 | 5.06 | 5.47 | inactive |
| FHL3 | 3 | -0.286 | 0.958 | 5.3 | inactive |

The listing continues:
no.	gene	reagent no.	G2 robust z-score	G2 cells, % of GMNN control	raw share of cells in G2 (%)	activity call
28	COL2A1	1	-0.5	-0.552	5.04	inactive
29	COL2A1	2	-0.545	-0.869	3.77	inactive
30	COL2A1	3	-0.39	0.224	3.61	inactive
31	SCAF11	1	5.1	38.9	22.4	active
32	SCAF11	2	-0.0308	2.75	4.99	inactive
33	SCAF11	3	5.23	39.7	17.4	active
34	IL26	1	3.77	29.5	15.9	inactive
35	IL26	2	1.68	14.8	10.3	inactive
36	IL26	3	1.94	16.6	8.45	inactive
37	CPA2	1	0.0541	3.35	6.73	inactive
38	CPA2	2	-0.137	2	5.62	inactive
39	CPA2	3	-0.56	-0.97	3.55	inactive
40	TAS2R50	1	-0.339	0.585	3.85	inactive
41	TAS2R50	2	0.337	5.34	5.11	inactive
42	TAS2R50	3	3.17	25.3	10.9	inactive
43	H2AC1	1	-0.436	-0.102	3.54	inactive
44	H2AC1	2	-0.297	0.876	3.43	inactive
45	H2AC1	3	-0.313	0.767	3.44	inactive
46	THAP9	1	-0.702	-1.97	3.63	inactive
47	THAP9	2	-0.444	-0.159	4.23	inactive
48	THAP9	3	0.586	7.09	4.32	inactive
49	RPL10AP3	1	1.48	13.4	9.22	inactive
50	RPL10AP3	2	-0.164	1.82	3.68	inactive
51	RPL10AP3	3	-0.784	-2.55	1.66	inactive
52	CEP15	1	2.39	19.8	9.29	inactive
53	CEP15	2	-0.208	1.5	4.94	inactive
54	CEP15	3	0.605	7.23	7.91	inactive
55	LOXL1	1	0.744	8.2	8.72	inactive
56	LOXL1	2	1.04	10.3	9.33	inactive
57	LOXL1	3	0.642	7.48	5.66	inactive
58	GNL1	1	-0.393	0.206	3.73	inactive
59	GNL1	2	-0.621	-1.4	4.73	inactive
60	GNL1	3	0.139	3.95	6.67	inactive
61	COMMD4P1	1	-0.495	-0.516	2.94	inactive
62	COMMD4P1	2	0.858	9.01	7.1	inactive
63	COMMD4P1	3	2.26	18.9	10.6	inactive
64	ZNF671	1	-0.196	1.59	3.35	inactive
65	ZNF671	2	-0.576	-1.08	5.42	inactive
66	ZNF671	3	-0.567	-1.02	3.31	inactive
67	ZNF587	1	-0.287	0.949	6.34	inactive
68	ZNF587	2	-0.73	-2.17	2.03	inactive
69	ZNF587	3	-0.639	-1.53	3.15	inactive
